Source: patent publication US20160032259A1 (KOREA ADVANCED INSTITUTE OF SCIENCE AND TECHNOLOGY KAIST, published 2016)
These are yes or no findings as the source states them, for the method shown. Some entries that bind do so weakly or less than the wild type.

Target: T1, hVEGF-B (human) (UniProt P49765)
T1 sequence (looked up): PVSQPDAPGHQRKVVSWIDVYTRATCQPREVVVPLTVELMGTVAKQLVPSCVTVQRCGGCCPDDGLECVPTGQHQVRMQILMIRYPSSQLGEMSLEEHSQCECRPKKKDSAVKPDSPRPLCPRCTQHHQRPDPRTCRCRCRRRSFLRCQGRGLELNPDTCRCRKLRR
Test: solid phase binding ELISA; hVEGF-B coated, Fc fusion titrated, anti-human Fc-HRP

binding: binds
B1: VEGF-Trap (Fc fusion, UniProt P17948 129-230, looked up, not shown: a dimerising Fc or GST)
chain: SDTGRPFVEMYSEIPEIIHMTEGRELVIPCRVTSPNITVTLKKFPLDTLIPDGKRIIWDSRKGFIISNATYKEIGLLTCEATVNGHLYKTNYLTHRQTNTIIDVVLSPSHGIELSVGEKLVLNCTARTELNVGIDFNWEYPSSKHQHKKLVNRDLKTQSGSEMKKFLSTLTIDGVTRSDQGLYTCAASSGLMTKKNSTFVRVHEK
modifications: N-glycans at Asn61, Asn93 and Asn328
